# Data taken from publication doi:10.1101/521369.
# Chains of the proteins cited; added tags and fusions are not shown.
# UniProt Q9QZ81: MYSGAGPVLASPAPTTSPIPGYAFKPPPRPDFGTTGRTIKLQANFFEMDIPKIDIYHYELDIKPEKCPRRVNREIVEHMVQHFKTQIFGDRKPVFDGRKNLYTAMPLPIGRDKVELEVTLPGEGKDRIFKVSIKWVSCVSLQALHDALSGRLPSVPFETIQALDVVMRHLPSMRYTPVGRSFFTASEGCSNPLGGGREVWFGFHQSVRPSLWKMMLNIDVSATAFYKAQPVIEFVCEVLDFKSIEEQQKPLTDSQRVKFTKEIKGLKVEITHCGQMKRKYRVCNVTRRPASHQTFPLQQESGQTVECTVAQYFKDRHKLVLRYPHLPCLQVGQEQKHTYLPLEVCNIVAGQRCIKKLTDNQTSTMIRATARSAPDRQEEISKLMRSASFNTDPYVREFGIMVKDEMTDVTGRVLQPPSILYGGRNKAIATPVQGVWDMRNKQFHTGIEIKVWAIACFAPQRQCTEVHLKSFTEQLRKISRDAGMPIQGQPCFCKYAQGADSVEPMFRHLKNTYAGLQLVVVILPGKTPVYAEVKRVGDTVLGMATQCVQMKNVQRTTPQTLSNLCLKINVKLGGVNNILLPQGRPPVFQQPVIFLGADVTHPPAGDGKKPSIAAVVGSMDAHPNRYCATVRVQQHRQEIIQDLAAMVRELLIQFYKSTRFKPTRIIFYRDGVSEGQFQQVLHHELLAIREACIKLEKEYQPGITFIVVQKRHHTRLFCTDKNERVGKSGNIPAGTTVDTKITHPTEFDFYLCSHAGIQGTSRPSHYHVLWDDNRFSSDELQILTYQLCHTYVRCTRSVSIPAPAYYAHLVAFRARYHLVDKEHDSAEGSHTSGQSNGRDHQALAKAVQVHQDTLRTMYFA
# UniProt Q5XI81: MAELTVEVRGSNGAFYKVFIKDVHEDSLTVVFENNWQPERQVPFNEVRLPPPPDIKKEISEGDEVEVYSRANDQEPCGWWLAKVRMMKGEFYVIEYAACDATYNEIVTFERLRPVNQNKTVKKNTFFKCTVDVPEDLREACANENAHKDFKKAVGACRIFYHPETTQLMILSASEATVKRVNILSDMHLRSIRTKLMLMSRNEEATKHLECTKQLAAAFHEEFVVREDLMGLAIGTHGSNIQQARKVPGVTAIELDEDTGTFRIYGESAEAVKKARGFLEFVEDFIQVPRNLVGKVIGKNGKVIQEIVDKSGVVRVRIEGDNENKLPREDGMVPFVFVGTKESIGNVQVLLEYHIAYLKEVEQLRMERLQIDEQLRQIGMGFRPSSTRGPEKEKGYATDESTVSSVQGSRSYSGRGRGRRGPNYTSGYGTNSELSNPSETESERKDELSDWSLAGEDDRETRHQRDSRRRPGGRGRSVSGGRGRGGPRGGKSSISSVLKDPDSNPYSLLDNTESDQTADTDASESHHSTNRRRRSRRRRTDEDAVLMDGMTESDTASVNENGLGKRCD
# UniProt Q4G061: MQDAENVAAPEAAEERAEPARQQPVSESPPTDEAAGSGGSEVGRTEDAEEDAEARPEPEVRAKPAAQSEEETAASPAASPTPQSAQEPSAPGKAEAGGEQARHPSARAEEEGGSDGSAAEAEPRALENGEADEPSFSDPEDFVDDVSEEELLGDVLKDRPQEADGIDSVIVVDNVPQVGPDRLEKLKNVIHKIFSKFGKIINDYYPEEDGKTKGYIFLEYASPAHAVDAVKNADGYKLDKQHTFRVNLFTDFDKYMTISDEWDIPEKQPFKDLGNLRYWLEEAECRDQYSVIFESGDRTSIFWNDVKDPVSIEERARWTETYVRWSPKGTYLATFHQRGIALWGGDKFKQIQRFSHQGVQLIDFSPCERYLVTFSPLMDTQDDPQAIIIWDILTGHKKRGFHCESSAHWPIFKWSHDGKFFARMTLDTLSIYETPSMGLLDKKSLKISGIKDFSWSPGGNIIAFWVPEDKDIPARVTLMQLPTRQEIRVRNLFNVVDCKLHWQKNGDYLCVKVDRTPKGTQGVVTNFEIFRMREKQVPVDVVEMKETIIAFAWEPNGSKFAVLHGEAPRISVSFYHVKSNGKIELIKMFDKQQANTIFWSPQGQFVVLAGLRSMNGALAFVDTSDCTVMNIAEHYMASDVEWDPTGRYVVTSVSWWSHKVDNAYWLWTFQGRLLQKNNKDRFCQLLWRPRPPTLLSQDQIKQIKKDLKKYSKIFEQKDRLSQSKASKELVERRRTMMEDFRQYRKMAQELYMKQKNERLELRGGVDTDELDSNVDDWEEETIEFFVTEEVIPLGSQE
# UniProt Q3T1J1: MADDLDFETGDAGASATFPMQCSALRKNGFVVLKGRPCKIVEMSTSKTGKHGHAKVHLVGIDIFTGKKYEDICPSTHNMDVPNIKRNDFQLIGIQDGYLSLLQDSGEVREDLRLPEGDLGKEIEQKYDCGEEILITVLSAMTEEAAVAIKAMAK
# UniProt B5DFC8: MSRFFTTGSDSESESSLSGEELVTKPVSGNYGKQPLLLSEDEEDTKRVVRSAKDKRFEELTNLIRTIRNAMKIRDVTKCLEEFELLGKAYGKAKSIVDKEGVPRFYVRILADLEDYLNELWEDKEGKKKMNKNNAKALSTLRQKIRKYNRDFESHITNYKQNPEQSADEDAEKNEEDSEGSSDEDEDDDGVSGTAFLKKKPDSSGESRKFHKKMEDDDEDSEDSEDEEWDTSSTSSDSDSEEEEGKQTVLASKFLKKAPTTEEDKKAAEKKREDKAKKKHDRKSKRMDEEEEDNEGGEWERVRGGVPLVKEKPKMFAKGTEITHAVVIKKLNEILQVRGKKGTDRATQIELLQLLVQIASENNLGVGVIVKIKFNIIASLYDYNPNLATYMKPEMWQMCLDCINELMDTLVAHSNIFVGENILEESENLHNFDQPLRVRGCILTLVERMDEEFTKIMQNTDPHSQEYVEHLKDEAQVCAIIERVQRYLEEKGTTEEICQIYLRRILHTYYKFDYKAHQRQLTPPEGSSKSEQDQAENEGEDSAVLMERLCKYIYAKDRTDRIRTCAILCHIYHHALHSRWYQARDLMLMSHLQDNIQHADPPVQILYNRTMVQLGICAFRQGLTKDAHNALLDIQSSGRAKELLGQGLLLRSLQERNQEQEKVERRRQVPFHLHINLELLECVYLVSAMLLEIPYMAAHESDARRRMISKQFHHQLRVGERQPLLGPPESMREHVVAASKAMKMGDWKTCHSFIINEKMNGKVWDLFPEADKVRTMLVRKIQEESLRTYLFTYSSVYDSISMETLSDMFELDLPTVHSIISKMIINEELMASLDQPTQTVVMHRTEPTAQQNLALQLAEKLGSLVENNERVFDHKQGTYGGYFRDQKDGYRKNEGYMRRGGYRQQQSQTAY
# UniProt Q1JU68: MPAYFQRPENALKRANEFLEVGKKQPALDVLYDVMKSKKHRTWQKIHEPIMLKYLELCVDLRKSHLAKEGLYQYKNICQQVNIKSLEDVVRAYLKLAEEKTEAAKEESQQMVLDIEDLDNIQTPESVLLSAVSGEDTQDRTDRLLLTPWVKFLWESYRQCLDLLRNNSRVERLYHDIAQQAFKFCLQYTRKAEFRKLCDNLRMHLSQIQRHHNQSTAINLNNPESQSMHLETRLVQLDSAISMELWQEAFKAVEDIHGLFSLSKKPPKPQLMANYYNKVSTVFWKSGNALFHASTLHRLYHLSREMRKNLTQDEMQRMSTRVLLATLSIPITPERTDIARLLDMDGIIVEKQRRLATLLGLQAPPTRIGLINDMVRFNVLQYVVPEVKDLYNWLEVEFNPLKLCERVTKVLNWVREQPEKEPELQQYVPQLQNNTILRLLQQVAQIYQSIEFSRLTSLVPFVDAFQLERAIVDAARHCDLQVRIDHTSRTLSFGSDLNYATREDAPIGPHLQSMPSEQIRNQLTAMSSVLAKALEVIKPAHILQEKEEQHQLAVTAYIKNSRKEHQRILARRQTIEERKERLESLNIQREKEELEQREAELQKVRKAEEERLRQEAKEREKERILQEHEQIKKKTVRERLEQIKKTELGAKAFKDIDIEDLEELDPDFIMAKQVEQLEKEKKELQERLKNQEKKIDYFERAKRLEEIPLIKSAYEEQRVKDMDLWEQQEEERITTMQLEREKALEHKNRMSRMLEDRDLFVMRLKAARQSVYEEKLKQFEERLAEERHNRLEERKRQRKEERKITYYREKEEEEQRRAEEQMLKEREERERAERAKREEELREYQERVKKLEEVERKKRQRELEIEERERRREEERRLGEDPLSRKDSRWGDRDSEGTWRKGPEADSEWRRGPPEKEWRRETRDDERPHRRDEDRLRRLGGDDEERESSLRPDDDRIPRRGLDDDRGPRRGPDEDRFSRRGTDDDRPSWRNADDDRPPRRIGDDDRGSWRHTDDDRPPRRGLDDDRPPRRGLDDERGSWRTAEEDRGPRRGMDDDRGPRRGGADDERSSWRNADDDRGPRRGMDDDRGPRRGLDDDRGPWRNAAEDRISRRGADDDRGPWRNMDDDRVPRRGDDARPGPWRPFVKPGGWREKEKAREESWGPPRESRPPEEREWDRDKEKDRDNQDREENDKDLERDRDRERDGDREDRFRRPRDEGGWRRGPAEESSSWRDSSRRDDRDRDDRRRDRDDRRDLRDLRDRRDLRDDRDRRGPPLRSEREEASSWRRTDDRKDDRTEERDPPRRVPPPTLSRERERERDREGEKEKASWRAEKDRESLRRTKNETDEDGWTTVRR
# Target: argonaute 2 (Ago2), endogenous (rat (endogenous in PC12 and A10)) (UniProt Q9QZ81)
# Test: affinity purification with mass spectrometry
row,Substance,binding
1,"FXR1, endogenous (from UniProt Q5XI81 1-568)",binds

# Target: T1, phospholipase Cβ1 (PLCβ1), endogenous (rat (endogenous in PC12 and A10)) (UniProt P10687)
# T1 sequence: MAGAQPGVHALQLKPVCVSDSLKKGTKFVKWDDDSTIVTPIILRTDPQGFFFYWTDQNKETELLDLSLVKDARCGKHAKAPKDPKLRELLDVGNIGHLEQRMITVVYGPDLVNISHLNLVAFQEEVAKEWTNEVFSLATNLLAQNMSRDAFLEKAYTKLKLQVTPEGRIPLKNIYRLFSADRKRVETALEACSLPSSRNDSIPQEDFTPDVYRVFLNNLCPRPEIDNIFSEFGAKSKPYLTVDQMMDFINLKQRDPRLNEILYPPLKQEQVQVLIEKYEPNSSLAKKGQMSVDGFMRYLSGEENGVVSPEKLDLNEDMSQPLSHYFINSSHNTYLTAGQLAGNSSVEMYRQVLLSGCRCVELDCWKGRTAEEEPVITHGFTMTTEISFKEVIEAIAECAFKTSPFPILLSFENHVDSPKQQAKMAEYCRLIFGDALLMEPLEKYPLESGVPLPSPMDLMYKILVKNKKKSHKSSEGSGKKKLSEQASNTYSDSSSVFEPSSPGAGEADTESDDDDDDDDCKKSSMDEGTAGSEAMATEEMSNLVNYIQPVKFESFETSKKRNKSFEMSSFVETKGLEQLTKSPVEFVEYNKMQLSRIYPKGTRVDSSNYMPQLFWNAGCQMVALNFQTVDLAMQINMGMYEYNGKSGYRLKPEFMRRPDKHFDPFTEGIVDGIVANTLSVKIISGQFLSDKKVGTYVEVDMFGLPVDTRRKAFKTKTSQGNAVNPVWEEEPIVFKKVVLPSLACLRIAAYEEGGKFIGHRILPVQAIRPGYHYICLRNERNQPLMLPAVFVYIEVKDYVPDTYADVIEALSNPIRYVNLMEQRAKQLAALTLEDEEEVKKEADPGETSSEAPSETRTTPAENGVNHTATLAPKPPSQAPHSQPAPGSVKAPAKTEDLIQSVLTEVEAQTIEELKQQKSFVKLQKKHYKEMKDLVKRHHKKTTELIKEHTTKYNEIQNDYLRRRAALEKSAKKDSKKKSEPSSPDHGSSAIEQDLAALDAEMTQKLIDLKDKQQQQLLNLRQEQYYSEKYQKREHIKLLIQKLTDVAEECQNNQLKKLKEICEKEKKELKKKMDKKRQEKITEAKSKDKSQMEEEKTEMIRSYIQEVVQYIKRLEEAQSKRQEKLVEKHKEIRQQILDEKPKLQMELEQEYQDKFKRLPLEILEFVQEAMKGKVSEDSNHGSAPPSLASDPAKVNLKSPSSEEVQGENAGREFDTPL
# Test: affinity purification with mass spectrometry
row,Substance,binding
1,"FXR1, endogenous (from UniProt Q5XI81 1-568)",binds
2,"eIF3B, endogenous (from UniProt Q4G061 1-797)",binds
3,"eukaryotic initiation factor 5A (eIF5A), endogenous (from UniProt Q3T1J1 1-154)",binds
4,"eIF3C, endogenous (from UniProt B5DFC8 1-911)",binds
5,"eIF3A, endogenous (from UniProt Q1JU68 1-1354)",binds

# These are yes or no findings as the source states them, for the method shown. Binding seen in cells or lysates may run through a third protein. Here binding means that the protein was enriched with, or labelled near, the bait; the list need not be complete.
